Data as given in US20260015662A1, “DETECTING ANTIBIOTIC AND/OR CHEMICAL USE IN ANIMALS USING EPIGENETIC MEANS” (Evonik Operations GmbH, priority 2022, published 2026).

Test system: broiler chickens (breast tissue genomic DNA)
Assay: Random forest classification of CpG methylation (reduced bisulphite sequencing), breast tissue of antibiotic treated broilers vs controls
Type: in vivo, chicken (Gallus gallus)
[1] = control vs treatment with no withdrawal (Tylosin 2 kg/MT day 32-42, Amoxicillin 1.86 kg/MT day 37-42)
[2] = control vs treatment with withdrawal (Tylosin 2 kg/MT, Amoxicillin 1.86 kg/MT feed day 32-37)
[3] = control vs AGP dose (50 g/MT feed day 1-42)
[4] = control vs therapeutic dose (200 g/MT feed day 23-28)

## CC1(C)S[C@@H]2[C@H](NC(=O)[C@H](N)c3ccc(O)cc3)C(=O)N2[C@H]1C(=O)O [Amoxicillin]
[1]
  Average Classification Error: 0.165
  Best Classification Error: 0.000
[2]
  Average Classification Error: 0.161
  Best Classification Error: 0.000

## CC[C@H]1OC(=O)C[C@@H](O)[C@H](C)[C@@H](O[C@@H]2O[C@H](C)[C@@H](O[C@H]3C[C@@](C)(O)[C@@H](O)[C@H](C)O3)[C@H](N(C)C)[C@H]2O)[C@@H](CC=O)C[C@@H](C)C(=O)/C=C/C(C)=C/[C@@H]1CO[C@@H]1O[C@H](C)[C@@H](O)[C@@H](OC)[C@H]1OC [Tylosin]
[1]
  Average Classification Error: 0.189
  Best Classification Error: 0.071
[2]
  Average Classification Error: 0.169
  Best Classification Error: 0.000

## Bacitracin Methylene Disalicylate [BMD]
[3]
  Average Classification Error: 0.314
  Best Classification Error: 0.111
[4]
  Average Classification Error: 0.275
  Best Classification Error: 0.056
